Residue numbers refer to the chain shown, from its start. Names may count otherwise.
B1: Ectodomain: membrane-anchored truncated Tlr4, residues 22–660, lacking the entire cytoplasmic domain (protein)
chain: PGSLNPCIEVVPNITYQCMDQKLSKVPDDIPSSTKNIDLSFNPLKILKSYSFSNFSELQWLDLSRCEIETIEDKAWHGLHHLSNLILTGNPIQSFSPGSFSGLTSLENLVAVETKLASLESFPIGQLITLKKLNVAHNFIHSCKLPAYFSNLTNLVHVDLSYNYIQTITVNDLQFLRENPQVNLSLDMSLNPIDFIQDQAFQGIKLHELTLRGNFNSSNIMKTCLQNLAGLHVHRLILGEFKDERNLEIFEPSIMEGLCDVTIDEFRLTYTNDFSDDIVKFHCLANVSAMSLAGVSIKYLEDVPKHFKWQSLSIIRCQLKQFPTLDLPFLKSLTLTMNKGSISFKKVALPSLSYLDLSRNALSFSGCCSYSDLGTNSLRHLDLSFNGAIIMSANFMGLEELQHLDFQHSTLKRVTEFSAFLSLEKLLYLDISYTNTKIDFDGIFLGLTSLNTLKMAGNSFKDNTLSNVFANTTNLTFLDLSKCQLEQISWGVFDTLHRLQLLNMSHNNLLFLDSSHYNQLYSLSTLDCSFNRIETSKGILQHFPKSLAFFNLTNNSVACICEHQKFLQWVKEQKQFLVNVEQMTCATPVEMNTSLVLDFNNSTCYMYKTIISVSVVSVIVVSTVAFLIYHFYFHLILIA
modifications: left off: small tags and cut ends
notes: membrane-anchored truncated Tlr4, residues 22–660, lacking the entire cytoplasmic domain
B2: Tlr4^Lps-n: flag-tagged full-length normal mouse Tlr4, residues 22–835, expressed in RAW 264.7 cells (protein)
chain: PGSLNPCIEVVPNITYQCMDQKLSKVPDDIPSSTKNIDLSFNPLKILKSYSFSNFSELQWLDLSRCEIETIEDKAWHGLHHLSNLILTGNPIQSFSPGSFSGLTSLENLVAVETKLASLESFPIGQLITLKKLNVAHNFIHSCKLPAYFSNLTNLVHVDLSYNYIQTITVNDLQFLRENPQVNLSLDMSLNPIDFIQDQAFQGIKLHELTLRGNFNSSNIMKTCLQNLAGLHVHRLILGEFKDERNLEIFEPSIMEGLCDVTIDEFRLTYTNDFSDDIVKFHCLANVSAMSLAGVSIKYLEDVPKHFKWQSLSIIRCQLKQFPTLDLPFLKSLTLTMNKGSISFKKVALPSLSYLDLSRNALSFSGCCSYSDLGTNSLRHLDLSFNGAIIMSANFMGLEELQHLDFQHSTLKRVTEFSAFLSLEKLLYLDISYTNTKIDFDGIFLGLTSLNTLKMAGNSFKDNTLSNVFANTTNLTFLDLSKCQLEQISWGVFDTLHRLQLLNMSHNNLLFLDSSHYNQLYSLSTLDCSFNRIETSKGILQHFPKSLAFFNLTNNSVACICEHQKFLQWVKEQKQFLVNVEQMTCATPVEMNTSLVLDFNNSTCYMYKTIISVSVVSVIVVSTVAFLIYHFYFHLILIAGCKKYSRGESIYDAFVIYSSQNEDWVRNELVKNLEEGVPRFHLCLHYRDFIPGVAIAANIIQEGFHKSRKVIVVVSRHFIQSRWCIFEYEIAQTWQFLSSRSGIIFIVLEKVEKSLLRQQVELYRLLSRNTYLEWEDNPLGRHIFWRRLKNALLDGKASNPEQTAEEEQETATWT
modifications: left off: small tags and cut ends
notes: flag-tagged full-length normal mouse Tlr4, residues 22–835, expressed in RAW 264.7 cells
B3: Tlr4^Lps-d: flag-tagged full-length mouse Tlr4 with P712H mutation, residues 22–835, expressed in RAW 264.7 cells (protein)
chain: B2 chain with P691H
modifications: left off: small tags and cut ends
notes: flag-tagged full-length mouse Tlr4 with P712H mutation, residues 22–835, expressed in RAW 264.7 cells
B4: Tlr4^Lps-n Cyt. Dom.: membrane-associated Tlr4 cytoplasmic domain, normal sequence, residues 630–835, with flag peptide, lacking the ectodomain (protein)
chain: TIISVSVVSVIVVSTVAFLIYHFYFHLILIAGCKKYSRGESIYDAFVIYSSQNEDWVRNELVKNLEEGVPRFHLCLHYRDFIPGVAIAANIIQEGFHKSRKVIVVVSRHFIQSRWCIFEYEIAQTWQFLSSRSGIIFIVLEKVEKSLLRQQVELYRLLSRNTYLEWEDNPLGRHIFWRRLKNALLDGKASNPEQTAEEEQETATWT
modifications: left off: small tags and cut ends
B5: Tlr4^Lps-d Cyt. Dom.: membrane-associated Tlr4 cytoplasmic domain with P712H, residues 630–835, with flag peptide, lacking the ectodomain (protein)
chain: B4 chain with P83H
modifications: left off: small tags and cut ends
notes: membrane-associated Tlr4 cytoplasmic domain with P712H, residues 630–835, with flag peptide, lacking the ectodomain

Tested on: RAW 264.7 cells
Assay: Expression level of each construct (copy number per cell) by equilibrium M2 antibody binding
Assay type: cell-based, murine
Conditions: stable RAW 264.7 clones, mean over n clones, M2 binding at a fixed concentration

| Molecule | Copies/cell |
| --- | --- |
| B1 | 1.4 × 10^4 Copies/cell |
| B2 | 2.1 × 10^4 Copies/cell |
| B3 | 2.0 × 10^4 Copies/cell |
| B4 | 1.2 × 10^4 Copies/cell |
| B5 | 9.9 × 10^3 Copies/cell |
